No constants are given. Whether binding was seen depends on the method and setting. In cells and extracts the contact can be indirect. A yes stands for co-enrichment or nearness to the bait. Other partners may have been found.
B1: HES1 (protein, UniProt P35428 1-282)
chain: MPADIMEKNSSSPVAATPASVNTTPDKPKTASEHRKSSKPIMEKRRRARINESLSQLKTLILDALKKDSSRHSKLEKADILEMTVKHLRNLQRAQMTAALSTDPSVLGKYRAGFSECMNEVTRFLSTCEGVNTEVRTRLLGHLANCMTQINAMTYPGQAHPALQAPPPPPPSGPAGPQHAPFAPPPPPLVPIPGGAAPPPGSAPCKLGSQAGEAAKVFGGFQVVPAPDGQFAFLIPNGAFAHSGPVIPVYTSNSGTSVGPNAVSPSSGSSLTSDSMWRPWRN

Amino acid sequences for entries named in this document (tags omitted).
UniProt O35185: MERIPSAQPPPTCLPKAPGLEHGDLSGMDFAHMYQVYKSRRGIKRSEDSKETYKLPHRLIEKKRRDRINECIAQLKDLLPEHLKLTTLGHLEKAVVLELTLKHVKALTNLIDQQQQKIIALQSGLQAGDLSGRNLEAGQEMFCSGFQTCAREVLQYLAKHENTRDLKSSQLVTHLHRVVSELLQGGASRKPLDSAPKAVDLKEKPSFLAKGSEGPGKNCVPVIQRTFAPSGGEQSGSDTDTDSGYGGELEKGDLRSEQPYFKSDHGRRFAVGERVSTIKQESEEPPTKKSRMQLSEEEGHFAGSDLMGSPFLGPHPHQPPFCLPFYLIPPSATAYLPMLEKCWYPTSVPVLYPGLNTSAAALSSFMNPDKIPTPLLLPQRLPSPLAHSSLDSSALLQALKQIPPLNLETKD
UniProt P15307: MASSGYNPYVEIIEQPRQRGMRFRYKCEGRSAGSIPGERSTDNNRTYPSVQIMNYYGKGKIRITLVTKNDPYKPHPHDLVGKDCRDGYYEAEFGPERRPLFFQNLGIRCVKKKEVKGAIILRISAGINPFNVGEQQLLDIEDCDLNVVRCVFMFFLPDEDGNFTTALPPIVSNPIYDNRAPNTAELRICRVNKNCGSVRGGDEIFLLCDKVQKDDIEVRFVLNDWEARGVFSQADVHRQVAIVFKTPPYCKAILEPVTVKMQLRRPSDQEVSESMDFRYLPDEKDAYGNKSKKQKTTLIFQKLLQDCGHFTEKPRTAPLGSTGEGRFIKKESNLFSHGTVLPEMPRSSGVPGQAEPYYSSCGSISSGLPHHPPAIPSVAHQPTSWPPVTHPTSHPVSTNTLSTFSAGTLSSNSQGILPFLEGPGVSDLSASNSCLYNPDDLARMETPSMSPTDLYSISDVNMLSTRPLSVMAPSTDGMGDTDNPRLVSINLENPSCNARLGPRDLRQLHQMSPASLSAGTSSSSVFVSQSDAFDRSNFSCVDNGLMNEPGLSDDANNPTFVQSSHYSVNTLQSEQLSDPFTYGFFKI
UniProt O35253: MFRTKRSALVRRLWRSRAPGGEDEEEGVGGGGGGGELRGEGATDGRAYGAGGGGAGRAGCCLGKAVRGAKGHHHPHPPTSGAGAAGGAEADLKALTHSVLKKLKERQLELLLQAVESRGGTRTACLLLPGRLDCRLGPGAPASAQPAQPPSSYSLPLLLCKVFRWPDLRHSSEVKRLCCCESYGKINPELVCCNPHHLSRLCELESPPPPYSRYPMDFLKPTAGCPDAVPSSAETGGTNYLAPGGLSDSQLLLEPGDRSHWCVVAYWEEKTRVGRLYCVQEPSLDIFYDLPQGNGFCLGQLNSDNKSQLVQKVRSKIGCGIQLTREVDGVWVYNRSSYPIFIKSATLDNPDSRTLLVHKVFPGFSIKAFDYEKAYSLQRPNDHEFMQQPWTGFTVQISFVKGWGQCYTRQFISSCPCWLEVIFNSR

target: Microtubule actin crosslinking factor 1 (MACF1) (mouse (endogenous in MC3T3-E1)) (UniProt Q9QXZ0); assay: affinity purification with mass spectrometry; anti-MACF1 antibody (Abcam ab117418) immunoprecipitation from MC3T3-E1 whole cell lysate in RIPA buffer, Protein A+G agarose; products labelled with iTRAQ and analysed by LC-MS/MS

binding, binds:
BHLHE40 (from UniProt O35185 1-411)
REL (from UniProt P15307 1-587)
SMAD family member 7 (SMAD7) (from UniProt O35253 1-426)
B1

Source: publication PMC7140458
